{"source": "PubChem BioAssay AID504744 (Drosophila RNAi Screening Center, 2011)", "test": "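Uncover factors, including feedback loops, that control dAkt activation in fly cells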 (primary screen)", "cells": "Drosophila Kc167 cells", "reagents": "long dsRNA against Drosophila genes, 250 ng dsRNA per well of a 384-well plate", "time to read-out": "3 days of knock-down, then overnight serum-free starvation before stimulation", "challenge": "bovine insulin at 387 nM for 10 minutes after 12 h without serum", "measurement": "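Per-well phospho-dAkt level from an in-cell fluorescent antibody stain, divided by a DNA-dye signal; log2 residuals turned into z-scores that take cell number into account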", "rule for the call": "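Hit in the insulin screen when the two-replicate mean z-score is more extreme than plus or minus 2.5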", "note": "The deposit covers about 23,000 reagents; shown is a random part of those with a known target gene and a result. Of all reagents, 98 (0.43%) are marked active. 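Only hit calls are given; the phospho-dAkt signals, z-scores and hit direction were not deposited.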 Names joined by + are all predicted targets of the reagent. No sequences are given here."}
{"target gene": "CG42496 + Ppcdc", "dsRNA": "DRSC03886", "Call": "inactive"}
{"target gene": "AhcyL1", "dsRNA": "DRSC08647", "Call": "inactive"}
{"target gene": "CG5808", "dsRNA": "DRSC14124", "Call": "inactive"}
{"target gene": "CG33107", "dsRNA": "DRSC21898", "Call": "inactive"}
{"target gene": "CanB", "dsRNA": "DRSC18449", "Call": "inactive"}
{"target gene": "CG3345", "dsRNA": "DRSC00596", "Call": "inactive"}
{"target gene": "CG2209", "dsRNA": "DRSC19843", "Call": "inactive"}
{"target gene": "cpa", "dsRNA": "DRSC04080", "Call": "inactive"}
{"target gene": "CG5790", "dsRNA": "DRSC02896", "Call": "inactive"}
{"target gene": "Anp", "dsRNA": "DRSC14112", "Call": "inactive"}
{"target gene": "Caf1-180", "dsRNA": "DRSC17807", "Call": "inactive"}
{"target gene": "Lrrk", "dsRNA": "DRSC15816", "Call": "inactive"}
{"target gene": "Lrrk", "dsRNA": "DRSC21971", "Call": "inactive"}
{"target gene": "CG12278", "dsRNA": "DRSC14494", "Call": "inactive"}
{"target gene": "smal", "dsRNA": "DRSC02318", "Call": "inactive"}
{"target gene": "smal", "dsRNA": "DRSC02319", "Call": "inactive"}
{"target gene": "smal", "dsRNA": "DRSC02320", "Call": "inactive"}
{"target gene": "smal", "dsRNA": "DRSC02504", "Call": "inactive"}
{"target gene": "smal", "dsRNA": "DRSC22866", "Call": "inactive"}
{"target gene": "CG34109", "dsRNA": "DRSC02169", "Call": "inactive"}
{"target gene": "CG34109", "dsRNA": "DRSC02224", "Call": "inactive"}
{"target gene": "CG34109", "dsRNA": "DRSC02225", "Call": "inactive"}
{"target gene": "Mitf", "dsRNA": "DRSC17212", "Call": "inactive"}
{"target gene": "Mitf", "dsRNA": "DRSC21056", "Call": "inactive"}
{"target gene": "CG15465", "dsRNA": "DRSC18048", "Call": "inactive"}
{"target gene": "Fhos", "dsRNA": "DRSC08943", "Call": "inactive"}
{"target gene": "Fhos", "dsRNA": "DRSC10545", "Call": "inactive"}
{"target gene": "Fhos", "dsRNA": "DRSC10546", "Call": "inactive"}
{"target gene": "Fhos", "dsRNA": "DRSC10547", "Call": "inactive"}
{"target gene": "Or67c", "dsRNA": "DRSC11242", "Call": "inactive"}
{"target gene": "Zir", "dsRNA": "DRSC00307", "Call": "inactive"}
{"target gene": "Actn", "dsRNA": "DRSC17724", "Call": "inactive"}
{"target gene": "PGRP-LB", "dsRNA": "DRSC14926", "Call": "inactive"}
{"target gene": "CG32189", "dsRNA": "DRSC09511", "Call": "inactive"}
{"target gene": "Snx3", "dsRNA": "DRSC16027", "Call": "inactive"}
{"target gene": "Dic1", "dsRNA": "DRSC14125", "Call": "inactive"}
{"target gene": "CG8100", "dsRNA": "DRSC10961", "Call": "inactive"}
{"target gene": "Cul2", "dsRNA": "DRSC03710", "Call": "inactive"}
{"target gene": "S6k", "dsRNA": "DRSC11276", "Call": "inactive"}
{"target gene": "CG12310", "dsRNA": "DRSC09878", "Call": "inactive"}
{"target gene": "Taf8", "dsRNA": "DRSC20363", "Call": "inactive"}
{"target gene": "CG33557", "dsRNA": "DRSC17854", "Call": "inactive"}
{"target gene": "CG33169", "dsRNA": "DRSC11853", "Call": "inactive"}
{"target gene": "Sry-alpha", "dsRNA": "DRSC16867", "Call": "inactive"}
{"target gene": "CG10527", "dsRNA": "DRSC04078", "Call": "inactive"}
{"target gene": "CG34167", "dsRNA": "DRSC01525", "Call": "inactive"}
{"target gene": "mmm", "dsRNA": "DRSC10208", "Call": "inactive"}
{"target gene": "Gem3", "dsRNA": "DRSC11144", "Call": "active"}
{"target gene": "Snoo", "dsRNA": "DRSC01008", "Call": "inactive"}
{"target gene": "Snoo", "dsRNA": "DRSC03004", "Call": "inactive"}
{"target gene": "Snoo", "dsRNA": "DRSC03035", "Call": "inactive"}
{"target gene": "plum", "dsRNA": "DRSC16054", "Call": "inactive"}
{"target gene": "CG13921", "dsRNA": "DRSC08390", "Call": "inactive"}
{"target gene": "Pde9", "dsRNA": "DRSC19746", "Call": "inactive"}
{"target gene": "Pde9", "dsRNA": "DRSC19874", "Call": "inactive"}
{"target gene": "Pde9", "dsRNA": "DRSC19875", "Call": "inactive"}
{"target gene": "Pde9", "dsRNA": "DRSC19876", "Call": "inactive"}

Hits, among the entries above:
{"target gene": "Gem3", "dsRNA": "DRSC11144", "Call": "active"}
